The assay has as its system Acinetobacter baumannii WP-487. The experiment in a line: percent growth inhibition of drug + antibiotic vs DMSO control; higher = more growth inhibition. The note with it: antibiotic (0.125x MIC): colistin.

Counter-ions that a name gives are not always drawn. ± gives the standard deviation of the averaged measurements. The list shows a part of the results. This data set is noisy: repeats of one test often differ as much as different tests do.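 The A. baumannii clinical isolates were selected for resistance to the partner antibiotic; the screen seeks drugs that restore its effect. Background from coloured compounds is removed by subtracting the start-of-incubation reading.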

For `CC/C(=C(/CC)c1ccc(O)cc1)c1ccc(O)cc1` [Diethylstilbestrol], the percent growth inhibition is -4.27 ± 6.7% (7 µM) and 50 ± 71% (20 µM).

`C=C1/C(=C\C=C2/CCC[C@]3(C)[C@@H]([C@H](C)/C=C/[C@@H](O)C4CC4)CC[C@@H]23)C[C@@H](O)C[C@@H]1O` [Calcipotriene]: the percent growth inhibition was 37.6 ± 65% (7 µM) and 5.73 ± 20% (20 µM).

On to `NC[C@@H]1O[C@H](O[C@H]2[C@@H](O)[C@H](O[C@@H]3[C@@H](O)[C@H](N)C[C@H](N)[C@H]3O[C@H]3O[C@H](CO)[C@@H](O)[C@H](O)[C@H]3N)O[C@@H]2CO)[C@H](N)[C@@H](O)[C@@H]1O` [Paromomycin sulfate], for which the percent growth inhibition reads like this: (7 µM) 10.3 ± 3.1%; (20 µM) 96.3 ± 1.5%.

`Cc1ccnc(NS(=O)(=O)c2ccc(N)cc2)n1` [Sulfamerazine]: the percent growth inhibition was 46.8 ± 68% (7 µM) and 50.8 ± 65% (20 µM).

For the compound `CCCCC(=O)O[C@H]1CC[C@H]2[C@@H]3CCc4cc(O)ccc4[C@H]3CC[C@]12C` [Estradiol Valerate], the percent growth inhibition stood at 47 ± 61% (7 µM) and 45.8 ± 63% (20 µM).

As for `COc1nc(C)nc(Cl)c1NC1=NCCN1` [Moxonidine], the percent growth inhibition is 36.9 ± 57% (7 µM) and -3.85 ± 12% (20 µM).
